# Reference: the supplement of paper PMC8728848
# Some of the results follow.
# Experiments:
# Test in all cases: glycan array binding signal (z-score within array); higher = stronger binding
# Settings in all cases: glycan notation: IUPAC condensed, linker removed
# Neu5Ac(a2-8)Neu5Ac = molecular target: Neu5Ac(a2-8)Neu5Ac
# Summary of the method: (§1)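 Glycan array binding is given as a within-array Z-score, which can be read as non-binding when negative. The arrays, 3228 of them, came from the Consortium for Functional Glycomics database and were retained only where the protein sequence was available. Z-scores were averaged across arrays of the same protein sequence at different concentrations or buffers and across linkers.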
# [1] = molecular target: Neu5Ac(a2-8)Neu5Ac(a2-3)Gal(b1-3)GalNAc(b1-4)[Neu5Ac(a2-3)]Gal(b1-4)Glc
# Summary of the method: as §1
# [2] = molecular target: Neu5Ac(a2-8)Neu5Ac(a2-3)Gal(b1-3)GalNAc(b1-4)[Neu5Ac(a2-8)Neu5Ac(a2-3)]Gal(b1-4)Glc
# Summary of the method: as §1
# [3] = molecular target: Neu5Ac(a2-8)Neu5Ac(a2-3)Gal(b1-4)Glc
# Summary of the method: as §1
# [4] = molecular target: Neu5Ac(a2-8)Neu5Ac(a2-3)Gal(b1-4)GlcNAc
# Summary of the method: as §1
# [5] = molecular target: Neu5Ac(a2-8)Neu5Ac(a2-3)[Gal(b1-3)GalNAc(b1-4)]Gal(b1-4)Glc
# Summary of the method: as §1
# [6] = molecular target: Neu5Ac(a2-8)Neu5Ac(a2-3)[GalNAc(b1-4)]Gal(b1-4)Glc
# Summary of the method: as §1
# [7] = molecular target: Neu5Ac(a2-8)Neu5Ac(a2-8)Neu5Ac
# Summary of the method: as §1
# [8] = molecular target: Neu5Ac(a2-8)Neu5Ac(a2-8)Neu5Ac(a2-3)Gal(b1-4)Glc
# Summary of the method: as §1
# [9] = molecular target: Neu5Ac(a2-8)Neu5Ac(a2-8)Neu5Ac(a2-3)[Gal(b1-3)GalNAc(b1-4)]Gal(b1-4)Glc
# Summary of the method: as §1
# [10] = molecular target: Neu5Ac(a2-8)Neu5Ac(a2-8)Neu5Ac(a2-3)[GalNAc(b1-4)]Gal(b1-4)Glc
# Summary of the method: as §1
# [11] = molecular target: Neu5Ac(a2-8)Neu5Ac(a2-8)Neu5Ac(a2-8)Neu5Ac(a2-3)[GalNAc(b1-4)]Gal(b1-4)Glc
# Summary of the method: as §1
# [12] = molecular target: Neu5Ac(a2-8)Neu5Gc(a2-3)Gal(b1-4)GlcNAc
# Summary of the method: as §1
# [13] = molecular target: Neu5Ac(b2-6)Gal(b1-4)GlcNAc
# Summary of the method: as §1
# Neu5Ac(b2-6)GalNAc = molecular target: Neu5Ac(b2-6)GalNAc
# Summary of the method: as §1
# [14] = molecular target: Neu5Ac9Ac(a2-3)Gal(b1-3)GlcNAc
# Summary of the method: as §1
# [15] = molecular target: Neu5Ac9Ac(a2-3)Gal(b1-4)GlcNAc
# Summary of the method: as §1
# [16] = molecular target: Neu5Ac9Ac(a2-6)Gal(b1-4)GlcNAc
# Summary of the method: as §1
# [17] = molecular target: Neu5Gc(a2-3)Gal(b1-3)GlcNAc
# Summary of the method: as §1
# [18] = molecular target: Neu5Gc(a2-3)Gal(b1-3)[Fuc(a1-4)]GlcNAc
# Summary of the method: as §1
# Neu5Gc(a2-3)Gal(b1-4)Glc = molecular target: Neu5Gc(a2-3)Gal(b1-4)Glc
# Summary of the method: as §1
# [19] = molecular target: Neu5Gc(a2-3)Gal(b1-4)GlcNAc
# Summary of the method: as §1
# [20] = molecular target: Neu5Gc(a2-3)Gal(b1-4)GlcNAc(b1-3)Gal(b1-4)GlcNAc(b1-2)Man(a1-3)[Neu5Gc(a2-3)Gal(b1-4)GlcNAc(b1-3)Gal(b1-4)GlcNAc(b1-2)Man(a1-6)]Man(b1-4)GlcNAc(b1-4)GlcNAc
# Summary of the method: as §1
# [21] = molecular target: Neu5Gc(a2-3)Gal(b1-4)[Fuc(a1-3)]GlcNAc
# Summary of the method: as §1
# [22] = molecular target: Neu5Gc(a2-6)Gal(b1-4)GlcNAc
# Summary of the method: as §1
# Neu5Gc(a2-6)GalNAc = molecular target: Neu5Gc(a2-6)GalNAc
# Summary of the method: as §1
# [23] = molecular target: Neu5Gc(a2-8)Neu5Ac(a2-3)Gal(b1-4)GlcNAc
# Summary of the method: as §1
# [24] = molecular target: Neu5Gc(a2-8)Neu5Gc(a2-3)Gal(b1-4)GlcNAc
# Summary of the method: as §1
# [25] = molecular target: Neu5Gc(a2-8)Neu5Gc(a2-3)Gal(b1-4)GlcNAc(b1-3)Gal(b1-4)GlcNAc
# Summary of the method: as §1
# [26] = molecular target: Neu5Gc(a2-8)Neu5Gc(a2-6)Gal(b1-4)GlcNAc
# Summary of the method: as §1
# [27] = molecular target: Neu5Gc(b2-6)Gal(b1-4)GlcNAc
# Summary of the method: as §1
binder,measurement,setting,value
"AntigenI/IIC123 (Streptococcus mutans), C9E3B4 (protein) MASMTGGQQMGRIHFHYFKLAVQPQVNKEIRNNNDINIDRTLVAKQSVVKFQLKTADLPAGRDETTSFVLVDPLPSGYQFNPEATKAASPGFDVTYDNATNTVTFKATAATLATFNADLTKSVATIYPTVVGQVLNDGATYKNNFTLTVNDAYGIKSNVVRVTTPGKPNDPDNPNNNYIKPTKVNKNENGVVIDGKTVLAGSTNYYELTWDLDQYKNDRSSADTIQKGFYYVDDYPEEALELRQDLVKITDANGNEVTGVSVDNYTNLEAAPQEIRDVLSKAGIRPKGAFQIFRADNPREFYDTYVKTGIDLKIVSPMVVKKQMGQTGGSYENQAYQIDFGNGYASNIIINNVPKINPKKDVTLTLDPADTNNVDGQTIPLNTVFNYRLIGGIIPADHSEELFEYNFYDDYDQTGDHYTGQYKVFAKVDITFKDGSIIKSGAELTQYTTAEVDTAKGAITIKFKEAFLRSVSIDSAFQAESYIQMKRIAVGTFENTYINTVNGVTYSSLEHHHHHH",glycan array binding signal (z-score),Neu5Ac(a2-8)Neu5Ac,-0.548
same,glycan array binding signal (z-score),[1],0.038
same,glycan array binding signal (z-score),[2],-0.203
same,glycan array binding signal (z-score),[3],-0.225
same,glycan array binding signal (z-score),[4],-0.762
same,glycan array binding signal (z-score),[5],1.11
same,glycan array binding signal (z-score),[6],-0.496
same,glycan array binding signal (z-score),[7],-0.594
same,glycan array binding signal (z-score),[8],0.91
same,glycan array binding signal (z-score),[9],-0.19
same,glycan array binding signal (z-score),[10],-0.027
same,glycan array binding signal (z-score),[11],-0.374
same,glycan array binding signal (z-score),[12],-0.866
same,glycan array binding signal (z-score),[13],-1.02
same,glycan array binding signal (z-score),Neu5Ac(b2-6)GalNAc,-0.522
same,glycan array binding signal (z-score),[14],-1.23
same,glycan array binding signal (z-score),[15],0.275
same,glycan array binding signal (z-score),[16],-1.27
same,glycan array binding signal (z-score),[17],-0.943
same,glycan array binding signal (z-score),[18],0.131
same,glycan array binding signal (z-score),Neu5Gc(a2-3)Gal(b1-4)Glc,-0.302
same,glycan array binding signal (z-score),[19],-1.14
same,glycan array binding signal (z-score),[20],-0.553
same,glycan array binding signal (z-score),[21],-0.615
same,glycan array binding signal (z-score),[22],-0.648
same,glycan array binding signal (z-score),Neu5Gc(a2-6)GalNAc,-0.987
same,glycan array binding signal (z-score),[23],-1.34
same,glycan array binding signal (z-score),[24],-0.838
same,glycan array binding signal (z-score),[25],-0.468
same,glycan array binding signal (z-score),[26],-0.326
same,glycan array binding signal (z-score),[27],-0.257

# For convenience, part of the list above:
binder,measurement,setting,value
"AntigenI/IIC123 (Streptococcus mutans), C9E3B4 (protein) MASMTGGQQMGRIHFHYFKLAVQPQVNKEIRNNNDINIDRTLVAKQSVVKFQLKTADLPAGRDETTSFVLVDPLPSGYQFNPEATKAASPGFDVTYDNATNTVTFKATAATLATFNADLTKSVATIYPTVVGQVLNDGATYKNNFTLTVNDAYGIKSNVVRVTTPGKPNDPDNPNNNYIKPTKVNKNENGVVIDGKTVLAGSTNYYELTWDLDQYKNDRSSADTIQKGFYYVDDYPEEALELRQDLVKITDANGNEVTGVSVDNYTNLEAAPQEIRDVLSKAGIRPKGAFQIFRADNPREFYDTYVKTGIDLKIVSPMVVKKQMGQTGGSYENQAYQIDFGNGYASNIIINNVPKINPKKDVTLTLDPADTNNVDGQTIPLNTVFNYRLIGGIIPADHSEELFEYNFYDDYDQTGDHYTGQYKVFAKVDITFKDGSIIKSGAELTQYTTAEVDTAKGAITIKFKEAFLRSVSIDSAFQAESYIQMKRIAVGTFENTYINTVNGVTYSSLEHHHHHH",glycan array binding signal (z-score),[1],0.038
same,glycan array binding signal (z-score),[2],-0.203
